Source: ChEMBL document CHEMBL3988442, “University of Dundee, Small-Polar-MMV Screening Library” (2021).

Chains of the proteins cited; added tags and fusions are not shown.
UniProt E9BF75, entry or part of it: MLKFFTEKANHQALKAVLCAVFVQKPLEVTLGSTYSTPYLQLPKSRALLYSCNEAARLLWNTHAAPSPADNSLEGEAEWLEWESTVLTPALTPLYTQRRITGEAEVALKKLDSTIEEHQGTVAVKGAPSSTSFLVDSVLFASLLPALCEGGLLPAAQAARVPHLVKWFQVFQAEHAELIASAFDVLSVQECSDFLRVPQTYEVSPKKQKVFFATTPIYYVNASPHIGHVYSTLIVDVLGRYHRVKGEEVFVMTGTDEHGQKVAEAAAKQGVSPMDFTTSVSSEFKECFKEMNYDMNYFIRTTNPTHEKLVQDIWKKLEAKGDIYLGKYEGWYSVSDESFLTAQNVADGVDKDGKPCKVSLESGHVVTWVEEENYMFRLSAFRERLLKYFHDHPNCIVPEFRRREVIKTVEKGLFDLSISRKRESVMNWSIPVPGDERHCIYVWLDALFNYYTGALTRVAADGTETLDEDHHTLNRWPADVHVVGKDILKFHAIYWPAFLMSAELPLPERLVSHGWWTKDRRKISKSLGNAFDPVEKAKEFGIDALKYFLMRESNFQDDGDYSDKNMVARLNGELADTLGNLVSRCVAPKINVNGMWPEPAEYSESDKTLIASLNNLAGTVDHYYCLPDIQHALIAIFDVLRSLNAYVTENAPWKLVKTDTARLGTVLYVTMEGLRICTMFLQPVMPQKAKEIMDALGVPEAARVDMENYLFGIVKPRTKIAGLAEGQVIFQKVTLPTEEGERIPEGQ

All values are in %. How 0% and 100% were set is not recorded. Most values in the screen are low, and negative values occur. Compounds were drawn at random from those tested, without regard to their results.

Mtb heat-shock: 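Assay on Mycobacterium tuberculosis, filed only as a heat shock assay from Cornell; the read-out is not stated. The concentration is filed as 10 mM, unlikely as a test dose, so the dose is not known. Higher reads as stronger inhibition (inferred: compounds with an IC50 in retests scored well above the rest). Of about 69,000 compounds tested this way, about 930 (1.4%) reached 50% or more in at least one test.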
LdMetRS: 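Primary screen of methionyl-tRNA synthetase; the read-out is not stated. Target: Methionyl-tRNA synthetase (putative), Leishmania donovani (UniProt E9BF75). The test concentration is not given. Values are per cent inhibition. Of about 68,000 compounds tested this way, about 24 (0.035%) reached 50% or more in at least one test.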

For [H][C@]12CCCCN1CCC[C@@]2(O)Cn1cnc2cc(C)c(C)cc21 the result was Mtb heat-shock: -13.47%. For CCOc1cc([C@H]2N[C@@H](c3nc(C)cs3)Cc3ccsc32)ccc1OC the result was Mtb heat-shock: 11.7%; LdMetRS: 25.31%. COc1ccc(NC(=O)C2CCCO2)cc1OCc1cccnc1 (centres unmarked) read Mtb heat-shock: -26.77%; LdMetRS: 12.1%. For [H][C@]12CCN(C(=O)N3CCCC3)[C@@]1([H])CCC(=O)N2Cc1ccncc1 the result was Mtb heat-shock: -12.55%. With O=C1CN(C(=O)C2CCOCC2)CCN1Cc1ccc(Cl)cc1 the screen gave Mtb heat-shock: -16.51%; LdMetRS: 19.93%.

With O=C(NCc1ccc(-n2cncn2)nc1)c1ccc2c(c1)CCO2 the screen gave Mtb heat-shock: 14.06%; LdMetRS: 7.19%. With Cc1ccc(-c2nc(CN3CCCC3Cn3cncn3)co2)cc1 (centres unmarked) the screen gave Mtb heat-shock: -12.41%; LdMetRS: 17.47%. Result for NC(=O)CCn1ccc(NCc2cc(F)ccc2Br)n1 was Mtb heat-shock: -104.4%; LdMetRS: 16.01%. With Cc1ccc2c(n1)N(CC1CC1)CCN(Cc1cnn(C)c1)C2 the screen gave Mtb heat-shock: -8.964%; LdMetRS: 2.747%. CSc1ncccc1C(=O)N1C[C@H]2CC[C@@H]1CN(c1ncccn1)C2 gave LdMetRS: 15.75%.

For CC(C)c1n[nH]c(C2CN(CC(=O)N(C)Cc3ccco3)CCO2)n1 (centres unmarked) the result was Mtb heat-shock: 7.056%. For CN1CCC2(CC1)C(=O)N(c1cccnc1)c1ccc(F)cc12 the result was LdMetRS: 8.014%. With [H][C@]12CC[C@]([H])(CN(c3nc(C)nc4ccsc34)C1)[C@@H]2OC the screen gave Mtb heat-shock: 7.911%. Result for CCC1=N[C@@]2(CC[C@@H]3CN(Cc4cccc(Cl)c4)C[C@@H]32)C(=O)N1C was LdMetRS: 3.618%. With Cc1cccnc1N1CCC(c2nccn2Cc2cscn2)CC1 the screen gave Mtb heat-shock: -28.64%; LdMetRS: 7.263%.

For CC(C)c1n[nH]c(C2CN(C(=O)c3cc4c(s3)CCC4)CCO2)n1 (centres unmarked) the result was Mtb heat-shock: -12.04%; LdMetRS: 9.859%. Cc1ccc(S(=O)(=O)NC(=O)C2(c3ccc(F)cc3)CCC2)c(C)c1 gave Mtb heat-shock: -7.418%; LdMetRS: 8.411%. O=C(CN1CCOC(c2ccc(Cl)s2)C1)NCc1ccco1 (centres unmarked) read Mtb heat-shock: 0.01882%; LdMetRS: 2.933%. With O=C(COCC(=O)N(c1ccccc1)c1ccccc1)N1CCOCC1 the screen gave Mtb heat-shock: 12.58%; LdMetRS: 16.84%. For NC(=O)c1c(SCCN2CCOCC2)sc2c(O)cc(=O)[nH]c12 the result was Mtb heat-shock: -18.7%; LdMetRS: 10.76%.

With CN(C)c1cc(C(=O)N2CCCCC2)ccn1 the screen gave Mtb heat-shock: 22.12%; LdMetRS: 14.21%. With CNC(=O)CCc1cc(C)nc(C2CCCCN2)n1 (centres unmarked) the screen gave Mtb heat-shock: -13.57%; LdMetRS: 14.69%. O=C(O)C(F)(F)F.O=C(O)C(F)(F)F.[H][C@@]12COC[C@]1(COc1cccnc1)CN(C1CCC1)C2 read Mtb heat-shock: 16.4%. Result for Cc1nccc(CNC(=O)NCCC(=O)N2CCCc3ccccc32)n1 was Mtb heat-shock: 4.363%; LdMetRS: 14.25%. For O=C(O)C(F)(F)F.[H][C@@]12CCN(CC3CC3)[C@@]1([H])CCN2C(=O)c1cccc(C#N)c1 the result was Mtb heat-shock: -24.15%.

CCOC(=O)CNC(=O)N1CCN(c2ncccn2)CC1 gave Mtb heat-shock: -0.2845%; LdMetRS: 14.96%. Cc1csc(N2CCN(CC(=O)Nc3cccnc3)CC2C)n1 (centres unmarked) read Mtb heat-shock: -15.08%; LdMetRS: 9.444%. Result for Fc1ccc(Cn2ncc3c2CN(c2noc(C4CC4)n2)C3)cc1 was Mtb heat-shock: -27.32%; LdMetRS: 14.53%. Result for CN(C)CCOCC1CN(Cc2ccsc2)Cc2nnn(C)c21 (centres unmarked) was LdMetRS: 4.061%. Cc1cccnc1CN1CCOC(Cc2cccc3ccccc23)C1 (centres unmarked) read Mtb heat-shock: 106.2%; LdMetRS: 14.29%.

Result for CC(NC(=O)c1cc(-c2cccc(Cl)c2)no1)C(=O)N1CCCC1 (centres unmarked) was Mtb heat-shock: -16.48%; LdMetRS: 15.49%. For Cc1cc(C)c2c(N3CCN(CCN4CCOCC4)CC3)ncnc2n1 the result was Mtb heat-shock: -9.677%; LdMetRS: 7.843%. Cc1ccc2c(n1)N(C)CCN(Cc1cnn(C)c1)C2 read Mtb heat-shock: 0.6789%; LdMetRS: 7.143%. CN1CC[C@H]2[C@H](C[C@@H](Cn3cncn3)N2c2nccs2)C1 read LdMetRS: 5.797%. Cc1nc(N2CCOCC2)nc2c1CCN(Cc1nccn1C)CC2 read LdMetRS: 15.25%.

With CC(N)Cc1ccccc1Sc1ccccc1 (centres unmarked) the screen gave LdMetRS: 20.53%. With COc1cccc(CN2CCC3(COCc4cnc(N(C)C)nc43)C2)c1 (centres unmarked) the screen gave LdMetRS: 10.53%. Cc1nccn1C1CCCN(C(=O)CCc2nc(C(C)C)no2)C1 (centres unmarked) gave Mtb heat-shock: 16.61%; LdMetRS: 6.044%. COCCN(C)C(=O)c1nc2c(s1)CCCN2c1ncccn1 read Mtb heat-shock: 15.19%; LdMetRS: 12.33%.